For 58 compounds, AC50 and cell number change results are on record in PubChem BioAssay AID2685 (National Center for Advancing Translational Sciences (NCATS), 2010).

The experiment in a line: qHTS Assay for Lipid Storage Modulators in Drosophila S3 Cells.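 For cell number change: cells counted by Cell Tracker Red CMTPX staining in the red channel.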 The conditions noted are these: BODIPY lipid droplet fluorescence, 18-24 h; for cell number change: measured here: cell count max response, cells fed with added oleic acid. The procedure, abridged:
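Drosophila S3 cells loaded with oleic acid (400 uM, as added) and compounds at several concentrations; lipid droplets imaged by 488-nm laser-scanning cytometry, 500–530 nm intensity and object ratio to cell channel. Percent activity normalized to 20 uM Triacsin C.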

Setting [1] is: measured here: lipid fluorescence (Fed channel) AC50, cells fed with added oleic acid.
[2] abbreviates: measured here: cell number channel AC50, cells fed with added oleic acid.

This is one part of the list. These are further read-outs of the screen, such as a control signal, another cell line or another target. No call is given for them. Compounds called inactive in the main read-out are mostly missing here. Words in brackets tell the shape of the fitted curve; partial curves, single points and poor fits give uncertain potencies.

Regarding `Cc1ccc(Cl)cc1NC(C#N)c1ccccc1` (centres undefined), the AC50 under setting [1] was 0.517 µM [rising, full curve, poor fit].
Consider `CC(C)C(=O)NC(=O)[C@@H]1CCCN1C(=O)/C=C/c1ccccc1`, for which the cell number change was 14.9%. Besides, the AC50 under setting [1] was 16.4 µM [rising, single point].
With `COc1cccc(NC(=O)n2nc(N)cc2-c2ccc(Cl)cc2)c1`, the cell number change amounted to 4.41%.
As for `Cc1ccc(Cn2c(C)c3cnn(CC(=O)NCc4ccccn4)c(=O)c3c2C)cc1`, the cell number change was found to be 9.22%. Also, under setting [1], the AC50 was 29.1 µM [rising, single point].
Consider `Cc1nc2oc3ccccc3c(=O)c2c(=O)n1Cc1ccccc1`, for which the AC50 under setting [1] was 29.1 µM [falling, single point].
Consider `CCCCNC(=O)C1(NC(=O)Nc2ccc(C)cc2)CCCCC1`, for which the AC50 is, setting by setting: under setting [2], 0.731 µM [falling, single point]; under setting [1], 0.58 µM [falling, single point].
As to `OCC(CBr)(CBr)CBr`, the cell number change is -19.1%. Further, the AC50 under setting [1] is 5.17 µM [falling, single point].
As to `Cn1c(SCC(=O)N2CCOCC2)nnc1-c1ccc(NC(=O)c2ccccc2F)cc1`, the cell number change worked out at 16.6%. Besides, the AC50 under setting [1] is 14.6 µM [rising, single point].
As for `Cc1[nH]c2ccccc2c1C(=O)CN1C(=O)C(=O)N(CCC2=CCCCC2)C1=O`, the cell number change was -8.72%. Further, the AC50 under setting [1] was 6.51 µM [rising, partial curve, poor fit].
`Nc1ncc(Br)cc1S(=O)(=O)NCCc1ccccc1`: the cell number change was -3.63%. Under setting [1], the AC50 is 6.51 µM [rising, partial curve, poor fit].
Take `O=C(C1CC1)N1CCc2cc(Br)cc(S(=O)(=O)N3CCN(c4ccccn4)CC3)c21`: the AC50 under setting [2] is 0.116 µM [falling, full curve, poor fit].
Take `COCCNC(=O)C(c1ccc(C)o1)N(Cc1ccccc1)C(=O)Cn1nnc2ccccc21` (centres undefined): the cell number change is 3.37%. In addition, the AC50 under setting [2] is 0.82 µM [rising, single point].
With `COc1ccccc1NC(=O)Cn1nnc(C(=O)Nc2ccccc2)c1N`, the AC50 under setting [2] was 4.11 µM [rising, partial curve].
For `CC1CCCN(Cc2nc3c(c(=O)n(C)c(=O)n3C)n2CCc2ccccc2)C1` (centres undefined), the cell number change came out at 92.5%. The AC50 under setting [2] was 23.1 µM [rising, single point].
In the case of `Nc1ccc(C(=O)OCc2nc3ccccc3s2)cc1`, the cell number change was 23.1%. Also, the AC50 under setting [2] is 0.206 µM [rising, single point]. Under setting [1], the AC50 is 0.651 µM [rising, partial curve, poor fit].
For `COc1cc(NC(=O)CCc2ccccc2)nc(OC)n1`, the cell number change was -9.45%. Further, the AC50 under setting [1] was 6.51 µM [rising, full curve].
In the case of `COc1ccc(N(CC(=O)NCc2ccco2)S(C)(=O)=O)cc1OC`, the cell number change is -28.1%. Further, under setting [2], the AC50 is 1.3 µM [falling, full curve, poor fit]. Moreover, the AC50 under setting [1] is 2.06 µM [falling, partial curve, poor fit].
As to `Cc1ccc(/C(O)=C2\C(=O)C(=O)N(C)C2c2ccccc2[N+](=O)[O-])cc1` (centres undefined), the cell number change was -4.74%. For the same compound, the AC50 under setting [1] was 7.31 µM [falling, partial curve].
With `C[C@@H](C[C@@H](O)[C@H](O)C(C)(C)O)[C@@H]1CC[C@]2(C)C3=CC[C@H]4C(C)(C)C(=O)CC[C@]4(C)[C@H]3CC[C@@]12C`, the cell number change was -43%. For the same compound, the AC50 under setting [2] was 29.1 µM [falling, single point]. For the same compound, the AC50 under setting [1] was 9.2 µM [falling, partial curve].
Consider `CC(=O)NN1C(=O)/C(=C2/Sc3ccccc3N2C)SC1=S`, for which the cell number change turned out to be 19.1%. For the same compound, the AC50 under setting [1] was 7.31 µM [rising, partial curve, poor fit].
In the case of `Cc1ccc(C2(c3ccc(C)cc3)CC2C(=O)Nc2ccc([N+](=O)[O-])cc2O)cc1` (centres undefined), the cell number change is -39.2%. Further, the AC50 under setting [2] was 20.6 µM [falling, partial curve, poor fit]. The AC50 under setting [1] is 7.31 µM [falling, partial curve].
Take `Cc1cc(C)c(C(N)=O)c(Nc2ccc(F)cc2)n1`: the cell number change came out at 8.8%. Moreover, under setting [1], the AC50 was 29.1 µM [rising, single point].
For the compound `Cc1ccccc1OCC(=O)Nc1cccc(N(C)S(C)(=O)=O)c1`, the cell number change was 14.5%. Under setting [2], the AC50 is 0.259 µM [rising, partial curve, poor fit]. Further, the AC50 under setting [1] is 0.326 µM [rising, full curve].
`CCOC(=O)c1[nH]c2ccccc2c1NC(=O)CC(C)(C)C`: the cell number change was -21.8%. Under setting [1], the AC50 was 2.31 µM [falling, partial curve].
For `O=C(NC1CCCc2c1cnn2-c1ccc(F)cc1F)c1ccccc1N1CCOCC1` (centres undefined), the cell number change was -26.7%. For the same compound, the AC50 under setting [1] was 29.1 µM [falling, single point].
Take `COc1ccccc1-c1c(C(F)(F)F)oc2cc(OC(=O)c3cccc([N+](=O)[O-])c3C)ccc2c1=O`: the cell number change is -20%. Further, under setting [1], the AC50 is 25.9 µM [falling, single point].
Consider `CCOc1ccc2nc(NC(=S)NCc3ccccc3)sc2c1`, for which the cell number change was -7.44%. For the same compound, the AC50 under setting [1] was 0.731 µM [rising, single point].
Turning to `Cn1cc(CCC(=O)NC2CC2)c2ccccc21`, the cell number change is 37.6%. Besides, the AC50 under setting [2] is 32.6 µM [rising, single point].
On to `CC(SCc1cc(=O)n2c([nH]c3ccccc32)c1C#N)C(=O)O` (centres undefined), for which the cell number change was found to be 8.1%. In addition, the AC50 under setting [1] is 0.058 µM [rising, full curve, poor fit].
For `O=C(CN(C(=O)CSc1nc2ccccc2o1)c1ccccc1)NC1CCCCC1`, the cell number change turned out to be 23%. Besides, the AC50 under setting [2] was 4.61 µM [rising, partial curve, poor fit].
For `Cc1ccc(/C(=N/Nc2ncnc3ccccc23)C(=O)O)cc1`, the cell number change is 33.8%. Further, under setting [2], the AC50 is 29.1 µM [rising, single point].
`CCOc1ccc(NC(=O)CCC(=O)O)cc1`: the cell number change is 7.73%. For the same compound, the AC50 under setting [1] is 0.651 µM [falling, full curve, poor fit].
As to `CCO[C@H]1OC(C(=O)NCc2ccccc2)=C[C@@H](c2ccc(C(F)(F)F)cc2)[C@@H]1CCCO`, the cell number change was -0.949%.
In the case of `NC(=O)N/N=C/c1ccc(-c2cccc(C(F)(F)F)c2)o1`, the cell number change turned out to be 36.8%. Further, the AC50 under setting [2] is 23.1 µM [rising, single point]. Besides, the AC50 under setting [1] is 29.1 µM [rising, single point].
Take `COC(=O)CCCN=C1SCCN1Cc1ccccc1`: the cell number change is 5.26%. Besides, the AC50 under setting [2] is 4.11 µM [rising, partial curve, poor fit]. Further, under setting [1], the AC50 is 35.5 µM [rising, single point].
Consider `COc1cc2c(cc1OC)CN(C(=O)/C=C/c1cccc([N+](=O)[O-])c1)CC2`, for which the cell number change is 2.94%. In addition, the AC50 under setting [1] was 0.206 µM [rising, single point].
For `O=C(Nc1ccnn1C1CCN(C2CCOCC2)CC1)c1cccc(F)c1`, the cell number change is -5.9%. For the same compound, the AC50 under setting [1] was 4.11 µM [rising, full curve].
Take `COc1ccc(NC(=O)CCc2ccccc2)cc1S(=O)(=O)N1CCCCC1`: the cell number change came to 1.74%. The AC50 under setting [1] is 0.731 µM [falling, single point].
On to `O=C(Cn1c(=O)n(CC(=O)N2CCCCC2)c(=O)c2sccc21)NCc1ccccc1`, for which the cell number change was -8.25%. The AC50 under setting [1] was 2.31 µM [falling, single point].
For the compound `COc1ccc(CN(Cc2cccnc2)S(=O)(=O)c2ccc(-n3cnnn3)c(OC)c2)cc1`, the cell number change stood at 7.26%. The AC50 under setting [1] is 0.411 µM [rising, partial curve, poor fit].
`COC(=O)c1[nH]c2ccc(Br)cc2c1NC(=O)CN1CCN(C2CCCCC2)CC1`: the cell number change is -25.3%. For the same compound, the AC50 under setting [1] was 29.1 µM [falling, single point].
Consider `O=[N+]([O-])c1cccc(/C=N/n2c(-c3cccnc3)n[nH]c2=S)c1`, for which the cell number change is -30.4%. Moreover, under setting [2], the AC50 was 29.1 µM [falling, single point].
Turning to `Cc1cc(-c2ccccc2)nc(Oc2ccc(C(C)(C)C)cc2)c1S(C)(=O)=O`, the cell number change was -33.9%. For the same compound, the AC50 under setting [2] is 32.6 µM [falling, single point]. Besides, the AC50 under setting [1] was 32.6 µM [falling, single point].
In the case of `Cc1cc(C(=O)N2CCN(S(C)(=O)=O)CC2)cs1`, the cell number change is -40.1%. The AC50 under setting [2] is 0.0092 µM [falling, full curve]. For the same compound, the AC50 under setting [1] is 0.00461 µM [falling, full curve, poor fit].
Regarding `Cc1ccc(NC(=O)c2cnn(C)c2)cc1[N+](=O)[O-]`, the cell number change came to 32.4%. For the same compound, the AC50 under setting [2] was 5.8 µM [rising, partial curve]. Also, the AC50 under setting [1] was 8.2 µM [rising, partial curve].
On to `CCCC(=O)Nc1ccc(C(=O)COC(=O)c2c(C)noc2C)cc1`, for which the cell number change was found to be 23.7%.
Consider `O=C(COc1ncnc2ccc(Br)cc12)NC1CCCC1`, for which the cell number change was -31.5%. In addition, the AC50 under setting [2] is 29.1 µM [falling, single point]. In addition, the AC50 under setting [1] is 29.1 µM [falling, single point].
On to `COc1ccc([C@H]2CC(=O)C=C(c3ccc(C)c([N+](=O)[O-])c3)C2)cc1`, for which the cell number change was 11.1%. For the same compound, the AC50 under setting [1] was 0.116 µM [falling, full curve, poor fit].
`CCOc1ccc(NC(=O)COC(=O)C23CC4CC(CC(C4)C2)C3)c([N+](=O)[O-])c1`: the cell number change is -25.3%.
As for `COc1cc(CCC(=O)OCC(=O)Nc2ccc(C)cc2Cl)cc(OC)c1OC`, the AC50 under setting [1] was 1.84 µM [rising, partial curve, poor fit].
Regarding `Cc1cccc(NS(=O)(=O)c2coc(C(N)=O)c2)c1C`, the cell number change stood at 9.51%. Moreover, the AC50 under setting [1] was 18.4 µM [rising, partial curve].
For `Cc1ccc(S(=O)(=O)N2CCN(C(=O)c3ccc(OCc4c(C)noc4C)cc3)CC2)cc1`, the cell number change amounted to 9.14%.
Consider `CC(=O)C1=C(C)NC(=O)NC1c1ccccc1` (centres undefined), for which the cell number change came to 4.44%. Further, under setting [1], the AC50 is 0.0058 µM [rising, full curve, poor fit].
Consider `Cc1ccccc1NC(=O)Cc1nnc(SCC(=O)NC2CCCC2)n1C`, for which the cell number change was 2.63%. Further, the AC50 under setting [1] is 0.1 µM [rising, full curve, poor fit].
With `CCc1nnc(NC(=O)c2cccc(OC)c2)s1`, the AC50 under setting [1] is 0.58 µM [falling, single point].
As to `O=C(Nc1ccnn1C1CCN(Cc2ccc(C#CCCO)cc2)CC1)c1cccc(F)c1`, the cell number change was -18.2%.
`Oc1csc(Cc2nc(-c3ccc4ccccc4c3)cs2)n1`: the cell number change came out at 8.92%.
`O=C(NCCN1CCOCC1)c1ccc(=O)n(Cc2ccc(Cl)cc2)c1`: the cell number change is -34.8%. Moreover, under setting [2], the AC50 is 18.4 µM [falling, single point].

As a reminder, the AC50 is the concentration at which the activity in the assay is half-maximal. A lower AC50 goes with activity at low concentration.
